Record: PubChem BioAssay AID1159595 (NIAID, 2016)
Here is a random part of 756 reagents tested. Over the whole deposit, 115 (15%) are marked active. 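Active calls cover both lowered and raised reporter signal; each score refers to one siRNA rather than a whole gene.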 Reagents against one gene are numbered here. Not given: the amount of reagent.

Aim: 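Which toll-like receptor pathway genes macrophages need for Pam3CSK4-induced Tnf promoter activity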 (primary screen)
System: mouse RAW264.7 macrophage reporter cells
Knock-down reagent: single siRNA against mouse genes
Timing: assayed 48 to 72 hours after siRNA transfection; ligand applied for 16 hours
Conditions: Pam3CSK4 (TLR2 ligand) for 16 hours before fixation; dose not given
Measured: 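High-content imaging of Tnf promoter-driven nuclear mCherry in cells given Pam3CSK4 for 16 h, 48–72 h after transfection; value is the replicate mean of plate-normalised background-corrected robust z-scores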
Reading the numbers: Tnf reporter z-score (replicate mean): higher = stronger Tnf promoter reporter signal than negative control wells
Hit rule: 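An siRNA is active when its replicate-mean z-score is -1.5 or lower or 1.5 or higher (activity score at least 50); activity graded at absolute z 1, 1.5, 2 and 2.5; calls apply to single siRNAs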
Meaning of the calls: active = strong change (up or down); inactive = little change

What did the screen give for Nfkb2 #1?
Tnf reporter z-score (replicate mean): -0.815; Call: inactive

Which result is listed for Nfkb2 #2?
Tnf reporter z-score (replicate mean): -0.713; Call: inactive

What is on record for Nfkb2 #3?
Tnf reporter z-score (replicate mean): -0.909; Call: inactive

With Nfkb2 #4, what was measured?
Tnf reporter z-score (replicate mean): -0.0189; Call: inactive

With Nfkb2 #5, what does the deposit list?
Tnf reporter z-score (replicate mean): 0.0624; Call: inactive

For Nfkb2 #6, what was measured?
Tnf reporter z-score (replicate mean): -1.98; Call: active

What did the screen give for Tlr3 #1?
Tnf reporter z-score (replicate mean): -0.209; Call: inactive

What did the screen give for Tlr3 #2?
Tnf reporter z-score (replicate mean): -1.67; Call: active

What is on record for Tlr3 #3?
Tnf reporter z-score (replicate mean): -0.222; Call: inactive

For Tlr3 #4, what does the deposit list?
Tnf reporter z-score (replicate mean): -0.162; Call: inactive

What is on record for Tlr3 #5?
Tnf reporter z-score (replicate mean): 0.749; Call: inactive

With Tlr3 #6, what does the deposit list?
Tnf reporter z-score (replicate mean): 0.805; Call: inactive

For Map2k7 #1, what was measured?
Tnf reporter z-score (replicate mean): 1.88; Call: active

How did the screen score Map2k7 #2?
Tnf reporter z-score (replicate mean): -1.21; Call: inactive

For Map2k7 #3, how do the results read?
Tnf reporter z-score (replicate mean): -1.41; Call: inactive

For Map2k7 #4, what was measured?
Tnf reporter z-score (replicate mean): -0.58; Call: inactive

How did the screen score Map2k7 #5?
Tnf reporter z-score (replicate mean): 0.253; Call: inactive

For Map2k7 #6, how do the results read?
Tnf reporter z-score (replicate mean): -1.06; Call: inactive

For Cxcl9 #1, how do the results read?
Tnf reporter z-score (replicate mean): -1.97; Call: active

What did the screen give for Cxcl9 #2?
Tnf reporter z-score (replicate mean): -0.0204; Call: inactive

Which result is listed for Cxcl9 #3?
Tnf reporter z-score (replicate mean): -0.0939; Call: inactive

With Cxcl9 #4, what does the deposit list?
Tnf reporter z-score (replicate mean): -0.977; Call: inactive

What did the screen give for Cxcl9 #5?
Tnf reporter z-score (replicate mean): 0.554; Call: inactive

For Cxcl9 #6, what was measured?
Tnf reporter z-score (replicate mean): -0.0244; Call: inactive

What is on record for Il12a #1?
Tnf reporter z-score (replicate mean): 0.492; Call: inactive

How did the screen score Il12a #2?
Tnf reporter z-score (replicate mean): -1.87; Call: active

What did the screen give for Il12a #3?
Tnf reporter z-score (replicate mean): -0.93; Call: inactive

What is on record for Il12a #4?
Tnf reporter z-score (replicate mean): -0.525; Call: inactive

How did the screen score Il12a #5?
Tnf reporter z-score (replicate mean): -1.52; Call: active

Which result is listed for Il12a #6?
Tnf reporter z-score (replicate mean): 0.563; Call: inactive

For Traf6 #1, what was measured?
Tnf reporter z-score (replicate mean): -0.833; Call: inactive

For Traf6 #2, what does the deposit list?
Tnf reporter z-score (replicate mean): -1.61; Call: active

What is on record for Traf6 #3?
Tnf reporter z-score (replicate mean): -2.69; Call: active

For Traf6 #4, how do the results read?
Tnf reporter z-score (replicate mean): -0.516; Call: inactive

What is on record for Traf6 #5?
Tnf reporter z-score (replicate mean): -0.814; Call: inactive

What did the screen give for Traf6 #6?
Tnf reporter z-score (replicate mean): -0.942; Call: inactive

What did the screen give for Ikbkg #1?
Tnf reporter z-score (replicate mean): 0.418; Call: inactive

With Ikbkg #2, what does the deposit list?
Tnf reporter z-score (replicate mean): -1.51; Call: active

What is on record for Ikbkg #3?
Tnf reporter z-score (replicate mean): -0.764; Call: inactive

For Ikbkg #4, how do the results read?
Tnf reporter z-score (replicate mean): -2.32; Call: active

Which result is listed for Ikbkg #5?
Tnf reporter z-score (replicate mean): -0.709; Call: inactive

Which result is listed for Ikbkg #6?
Tnf reporter z-score (replicate mean): -0.456; Call: inactive

With Rel #1, what does the deposit list?
Tnf reporter z-score (replicate mean): -1.15; Call: inactive

For Rel #2, what was measured?
Tnf reporter z-score (replicate mean): 0.754; Call: inactive

With Rel #3, what was measured?
Tnf reporter z-score (replicate mean): 0.219; Call: inactive

With Rel #4, what does the deposit list?
Tnf reporter z-score (replicate mean): -0.0503; Call: inactive

For Rel #5, what does the deposit list?
Tnf reporter z-score (replicate mean): -1.22; Call: inactive

For Rel #6, what does the deposit list?
Tnf reporter z-score (replicate mean): -0.885; Call: inactive

Part of the list above, reformatted:
Traf6 #3
- Tnf reporter z-score (replicate mean): -2.69
- Call: active

Traf6 #4
- Tnf reporter z-score (replicate mean): -0.516
- Call: inactive

Traf6 #5
- Tnf reporter z-score (replicate mean): -0.814
- Call: inactive

Traf6 #6
- Tnf reporter z-score (replicate mean): -0.942
- Call: inactive

Ikbkg #1
- Tnf reporter z-score (replicate mean): 0.418
- Call: inactive

Ikbkg #2
- Tnf reporter z-score (replicate mean): -1.51
- Call: active

Ikbkg #3
- Tnf reporter z-score (replicate mean): -0.764
- Call: inactive
